# Reference: PubChem BioAssay (NCATS)
# Chains of the proteins cited; added tags and fusions are not shown. Lines headed by an entry give the natural chain unless they say otherwise; changes in a name come on top.
# UniProt P40261: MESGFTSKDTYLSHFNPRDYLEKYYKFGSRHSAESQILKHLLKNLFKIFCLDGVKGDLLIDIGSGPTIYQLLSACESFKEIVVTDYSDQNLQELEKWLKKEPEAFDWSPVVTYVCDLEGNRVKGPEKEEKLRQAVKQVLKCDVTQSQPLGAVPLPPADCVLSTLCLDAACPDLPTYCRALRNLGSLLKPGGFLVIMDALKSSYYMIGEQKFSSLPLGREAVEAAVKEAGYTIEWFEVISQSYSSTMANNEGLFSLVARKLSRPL
# The other results are listed elsewhere or left out. These are further read-outs of the screen, such as a control signal, another cell line or another target. No call is given for them. For part of these data: Most of these compounds were active or inconclusive in the main read-out, so they are no random draw. For part of these data: Potencies come from curve fits of mixed quality, noted in brackets.
# Key:
# [1] = A High-Content qHTS Against Drug Library for the Identification of Small Molecules that Inhibit DYT1 Early Onset Primary Dystonia-Associated Cell Pathology (AID 1645839); conditions: HEK293 Flp-In EGFP-delE TorsinA, punctate imaging, 48 h; measured here: cell count cytotoxicity
# Procedure, shortened: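 High-content imaging quantified EGFP-TorsinA mislocalization in HEK293-derived cells inducibly expressing DYT1 mutant torsinA, after 48 h exposure to compound given together with tetracycline induction. Cell count served as a toxicity channel alongside %pathology.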
# [2] = qHTS for identification of novel therapeutic agents for treatment of microphthalmiaassociated transcription factor (MiT) renal cell carcinoma (RCC) (AID 1963991); conditions: CellTiter-Glo, 48 h; for z-score: stronger effect = lower value
# Procedure, shortened: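 Curves over 11 concentrations were fitted to CellTiter-Glo luminescence, scaled between empty wells (0%) and DMSO (100%) viability. Cells were UOK109, UOK124 and UOK145 TFE3-fusion RCC lines at 500/well, exposed 48 hours at 37 C.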
# [3] = qHTS drug screen for cell cycle checkpoint inhibitors in PARPi-resistant BRCA-mutant ovarian cancer cell lines. (AID 1963452); conditions: PEO1/OlaR viability, CellTiter-Glo luminescence, 96 h
# Procedure, shortened: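 PEO1, PEO4 and PEO1/OlaR ovarian cancer cells, 600 per well, exposed 96 h at 37C to a dilution series. Viability read by CellTiter-Glo luminescence, normalized to DMSO and empty wells; activity summarized as Z-AUC.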
# [4] = biological target: Nicotinamide N-methyltransferase (Homo sapiens) (UniProt P40261); test: Confirmatory Screen for Target Class Profiling of Small Molecule Inhibitors of Methyltransferases (AID 1745852); conditions: MTase-Glo luminescence, SAH detection, recombinant enzyme; measured here: NNMT inhibition potency
# [5] = qHTS Assay for Modulators of Human Peripheral Myelin Protein 22 (PMP22) Expression/Activity (AID 1967); conditions: Cell-based PMP22 reporter, dual-color luciferase ratio
# Procedure, shortened: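 Quantitative HTS in a mouse Schwann cell line expressing dual click beetle luciferases: Pmp22 promoter (green) and control EF-alpha promoter (red). After 24h treatment, corrected green/red signal ratio gave %Activity relative to untreated cells.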
# [6] = qHTS Validation Assay to Find Inhibitors of Chronic Active B-Cell Receptor Signaling (AID 485345); conditions: ABC-DLBCL cells, chronic BCR signaling reporter
# Procedure, shortened: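 Read-out: ratio of filter-corrected green (IkappaBalpha fusion) to red (native) luciferase signal in doxycycline-induced TMD8 cells after 4 h at 37C. Titration spanned 46 uM–3 nM; Data were normalised to basal cells and 10 uM MG-132 wells.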
# [7] = NCATS anti-infectives library activity on the primary C. elegans qHTS viability assay (AID 1745855); conditions: C. elegans worm area imaging
# Procedure, shortened: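 GFP read-out by 488 nm laser cytometry at day 0, 3 and 7, gated on object perimeter, area and peak intensity, scored viability of PE254-GFP-FLuc worms exposed to compound in S medium with bacterial capsules at 21 °C.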
# [8] = qHTS assay for small molecule antagonists of androgen receptor signaling (AID 588516); conditions: AR-UAS-bla HEK293, beta-lactamase ratio, antagonist mode, 16 h
# Procedure, shortened: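 Cells were plated and incubated 5 h, compounds added in titration, then R1881 (10 nM final) as agonist. After 16 h at 37 C, CCF4 substrate was loaded for 2 h at room temperature and fluorescence measured.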
# [9] = qHTS assay for small molecule agonists of retinoid X receptor alpha signaling (AID 588544); conditions: HEK293T RXRa-UAS-bla, beta-lactamase reporter, 18 h; 530 nm emission
# [10] = qHTS assay for small molecule antagonists of retinoid X receptor alpha signaling (AID 588546); conditions: HEK293T RXRa-UAS-bla, beta-lactamase ratio, antagonist mode; measured here: W530 green channel, cytotoxicity proxy;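 also: cells stimulated with 9-cis-retinoic acid as agonist; % is scaled to controls: 0 for no effect and ±100 for the full control effect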
# Procedure, shortened: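 Beta-lactamase reporter inhibition, read as CCF4 fluorescence ratio (ex 405, em 460/530 nm) after 2 h at RT. HEK293T UAS-bla cells, 2500/well, were stimulated with 9-cis-RA at 500 or 100 nM final alongside test compound for 18 h at 37 C.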
# [11] = S16 Schwann cell PMP22 intronic element beta-lactamase assay (AID 624044); conditions: S16 rat Schwann cells, PMP22 element beta-lactamase FRET, 24 h
# Procedure, shortened: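 Beta-lactamase reporter under a PMP22 intronic regulatory element in stable S16 rat Schwann cells; 24 h compound exposure. 460 nm blue signal normalized between DMSO (0%) and potassium clavulanate, with 535 nm FRET tracking viability; curves classed by r2 and response.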
# [12] = TFE3-RCC UOK109 viability, measured here: UOK109 Z-AUC
# [13] = TFE3-RCC viability, measured here: UOK124 Z-AUC
# [14] = TFE3-RCC viability, measured here: UOK124 cell viability
# [15] = TFE3-RCC viability, measured here: UOK145 Z-AUC
# [16] = measured here: PEO1 parental viability
# [17] = TFE3-RCC viability, measured here: UOK145 cell viability
smiles,measurement,setting,value
CN1CCN(C2=Nc3cc(Cl)ccc3Nc3ccccc32)CC1,AC50,[1],"7.94 µM [falling, partial curve]"
same,z-score,[2]; [12],0.318
same,z-score,[2]; [13],0.473
same,AC50,[2]; [14],"18.7 µM [falling, partial curve]"
same,z-score,[2]; [15],0.557
COC1=C(OC)C(=O)C(CCCCCCCCCCO)=C(C)C1=O,AC50,[1],"10 µM [falling, partial curve, poor fit]"
same,AC50,[3]; [16],"1.55 µM [falling, partial curve, poor fit]"
same,z-score,[2]; [12],1.24
same,z-score,[2]; [13],-0.231
same,AC50,[2]; [14],"29.6 µM [falling, single point]"
same,z-score,[2]; [15],0.815
Clc1ccc(C(Cn2ccnc2)OCc2c(Cl)cccc2Cl)c(Cl)c1 (stereo not drawn),AC50,[1],"35.5 µM [falling, single point]"
same,IC50,[4],"21.5 µM [falling, partial curve]"
same,AC50,[3]; [16],"17.4 µM [falling, single point]"
same,AC50,[3]; measured here: PEO4 viability,"17.4 µM [falling, single point]"
same,z-score,[2]; [12],-0.111
same,z-score,[2]; [13],0.193
same,AC50,[2]; [14],"37.2 µM [falling, single point]"
same,z-score,[2]; [15],0.907
CN1CCN(C2Cc3ccccc3Sc3ccc(Cl)cc32)CC1 (stereo not drawn),AC50,"[5]; measured here: green reporter channel AC50, mouse Pmp22 promoter in mouse Schwann cells","37.9 µM [falling, full curve]"
same,AC50,"[5]; measured here: red reporter channel AC50, EF-alpha promoter control reporter in MSC80 mouse Schwann cells","33.8 µM [falling, full curve]"
same,AC50,[6]; measured here: CBG/CBR ratio read-out,"20.6 µM [falling, single point]"
same,AC50,[6]; measured here: CBR control luciferase (viability counter),"29.1 µM [falling, single point]"
same,AC50,[1],"7.94 µM [falling, partial curve, poor fit]"
same,IC50,[4],"43.2 µM [falling, partial curve, poor fit]"
CN(C)C(=O)C(CCN1CCC(O)(c2ccc(Cl)cc2)CC1)(c1ccccc1)c1ccccc1,AC50,[1],"35.5 µM [falling, single point]"
same,IC50,[4],"34.3 µM [falling, single point]"
same,AC50,[3]; [16],"21.9 µM [falling, single point]"
same,AC50,[3]; measured here: PEO4 viability,"15.5 µM [falling, single point]"
same,z-score,[2]; [12],0.561
same,z-score,[2]; [13],-0.279
same,AC50,[2]; [14],"16.6 µM [falling, partial curve]"
same,z-score,[2]; [15],0.0704
same,AC50,[2]; [17],"23.5 µM [falling, partial curve]"
COC(=O)Nc1nc2ccc(S(=O)c3ccccc3)cc2[nH]1 (stereo not drawn),AC50,[1],"0.316 µM [falling, full curve, poor fit]"
same,AC50,[3]; [16],"12.3 µM [falling, partial curve]"
same,AC50,[3]; measured here: PEO4 viability,"15.5 µM [falling, partial curve, poor fit]"
same,z-score,[2]; [12],-0.172
same,z-score,[2]; [13],0.267
same,AC50,[2]; [14],"18.7 µM [falling, partial curve]"
same,z-score,[2]; [15],-3.41
same,AC50,[2]; [17],"9.35 µM [falling, partial curve, poor fit]"
CN1CCC(=C2c3ccccc3CCc3sccc32)CC1,AC50,[1],"7.08 µM [falling, full curve]"
same,AC50,[3]; measured here: PEO4 viability,"27.5 µM [falling, single point]"
same,z-score,[2]; [12],0.48
same,z-score,[2]; [13],-0.0304
same,AC50,[2]; [14],"20.9 µM [falling, partial curve]"
same,z-score,[2]; [15],1.35
same,AC50,[2]; [17],"33.2 µM [falling, partial curve, poor fit]"
CCCCCN=C(N)N/N=C/c1c[nH]c2ccc(OC)cc12,AC50,[1],"25.1 µM [falling, single point]"
same,AC50,"[7]; day 7, measured here: worm number","20.5 µM [falling, partial curve, poor fit]"
same,AC50,"[7]; day 7, measured here: worm area, day 3","25.8 µM [falling, single point]"
same,AC50,[3]; [16],"11 µM [falling, partial curve]"
same,AC50,[3]; measured here: PEO4 viability,"4.36 µM [falling, full curve]"
Cc1c(O)cccc1C(=O)N[C@@H](CSc1ccccc1)[C@H](O)CN1C[C@H]2CCCC[C@H]2C[C@H]1C(=O)NC(C)(C)C,AC50,[8]; measured here: W460 blue channel fit,"25.1 µM [falling, full curve]"
same,AC50,"[8]; measured here: W530 green channel, cytotoxicity/artifact","11.2 µM [rising, partial curve, poor fit]"
same,max response,[9],24.8%
same,max response,[10],22.8%
same,AC50,[11]; measured here: 460 nm blue channel,"25.1 µM [falling, single point]"
same,AC50,[1],"5.62 µM [falling, full curve, poor fit]"
same,AC50,[3]; [16],"13.8 µM [falling, single point]"
same,AC50,[3]; measured here: PEO4 viability,"24.5 µM [falling, single point]"
C=C(c1ccc(C(=O)O)cc1)c1cc2c(cc1C)C(C)(C)CCC2(C)C,AC50,[11]; measured here: 530 nm viability channel,"31.6 µM [rising, single point]"
same,AC50,[1],"35.5 µM [falling, single point]"
same,AC50,[3]; measured here: PEO4 viability,"17.4 µM [falling, partial curve, poor fit]"
NC(=O)Cc1cccc(C(=O)c2ccccc2)c1N,AC50,[1],"35.5 µM [rising, single point]"
same,z-score,[2]; [12],0.75
same,z-score,[2]; [13],0.365
same,AC50,[2]; [14],"18.7 µM [falling, partial curve, poor fit]"
same,z-score,[2]; [15],0.545
CCCS(=O)c1ccc2nc(NC(=O)OC)[nH]c2c1 (stereo not drawn),AC50,[1],"6.31 µM [falling, partial curve, poor fit]"
same,AC50,[3]; [16],"21.9 µM [falling, partial curve, poor fit]"
same,AC50,[3]; measured here: PEO4 viability,"27.5 µM [falling, single point]"
same,z-score,[2]; [12],0.728
same,z-score,[2]; [13],-0.0858
same,AC50,[2]; [14],"23.5 µM [falling, partial curve, poor fit]"
same,z-score,[2]; [15],0.693
same,AC50,[2]; [17],"20.9 µM [falling, partial curve]"

# 5 entries picked at random from those above, as already listed:
smiles,measurement,setting,value
CN1CCC(=C2c3ccccc3CCc3sccc32)CC1,z-score,[2]; [12],0.48
Cc1c(O)cccc1C(=O)N[C@@H](CSc1ccccc1)[C@H](O)CN1C[C@H]2CCCC[C@H]2C[C@H]1C(=O)NC(C)(C)C,AC50,[3]; measured here: PEO4 viability,"24.5 µM [falling, single point]"
CN1CCC(=C2c3ccccc3CCc3sccc32)CC1,AC50,[2]; [17],"33.2 µM [falling, partial curve, poor fit]"
Clc1ccc(C(Cn2ccnc2)OCc2c(Cl)cccc2Cl)c(Cl)c1 (stereo not drawn),AC50,[3]; measured here: PEO4 viability,"17.4 µM [falling, single point]"
same,z-score,[2]; [13],0.193
